Assay results from patent US20140314799A1.
Results are given in words; binding and its absence hold for the method and conditions named. Binding seen in cells or lysates may run through a third protein. Some entries that bind do so weakly or less than the wild type.

Amino acid sequences for entries named in this document (tags omitted). A change or cut given only in a name is not applied to a line headed by its entry.
UniProt O60603: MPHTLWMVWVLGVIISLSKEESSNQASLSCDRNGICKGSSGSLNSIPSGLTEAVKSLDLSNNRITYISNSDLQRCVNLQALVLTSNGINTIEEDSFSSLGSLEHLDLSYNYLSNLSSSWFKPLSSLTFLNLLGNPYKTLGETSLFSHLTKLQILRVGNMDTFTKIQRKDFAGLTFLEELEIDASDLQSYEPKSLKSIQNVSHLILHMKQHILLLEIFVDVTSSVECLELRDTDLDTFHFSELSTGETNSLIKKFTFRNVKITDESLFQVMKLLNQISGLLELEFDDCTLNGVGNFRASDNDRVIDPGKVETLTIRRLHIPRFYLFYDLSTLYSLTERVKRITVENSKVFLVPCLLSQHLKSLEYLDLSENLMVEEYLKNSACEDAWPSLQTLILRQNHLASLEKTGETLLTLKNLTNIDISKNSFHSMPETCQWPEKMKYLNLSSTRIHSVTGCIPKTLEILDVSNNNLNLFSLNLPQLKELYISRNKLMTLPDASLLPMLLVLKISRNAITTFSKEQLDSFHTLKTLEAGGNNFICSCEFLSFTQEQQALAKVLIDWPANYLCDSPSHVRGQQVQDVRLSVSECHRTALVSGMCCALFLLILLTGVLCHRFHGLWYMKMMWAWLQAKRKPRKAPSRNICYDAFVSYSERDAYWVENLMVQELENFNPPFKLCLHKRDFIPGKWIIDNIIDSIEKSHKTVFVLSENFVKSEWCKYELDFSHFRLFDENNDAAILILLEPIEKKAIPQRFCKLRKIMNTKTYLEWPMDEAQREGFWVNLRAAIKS
UniProt P08253: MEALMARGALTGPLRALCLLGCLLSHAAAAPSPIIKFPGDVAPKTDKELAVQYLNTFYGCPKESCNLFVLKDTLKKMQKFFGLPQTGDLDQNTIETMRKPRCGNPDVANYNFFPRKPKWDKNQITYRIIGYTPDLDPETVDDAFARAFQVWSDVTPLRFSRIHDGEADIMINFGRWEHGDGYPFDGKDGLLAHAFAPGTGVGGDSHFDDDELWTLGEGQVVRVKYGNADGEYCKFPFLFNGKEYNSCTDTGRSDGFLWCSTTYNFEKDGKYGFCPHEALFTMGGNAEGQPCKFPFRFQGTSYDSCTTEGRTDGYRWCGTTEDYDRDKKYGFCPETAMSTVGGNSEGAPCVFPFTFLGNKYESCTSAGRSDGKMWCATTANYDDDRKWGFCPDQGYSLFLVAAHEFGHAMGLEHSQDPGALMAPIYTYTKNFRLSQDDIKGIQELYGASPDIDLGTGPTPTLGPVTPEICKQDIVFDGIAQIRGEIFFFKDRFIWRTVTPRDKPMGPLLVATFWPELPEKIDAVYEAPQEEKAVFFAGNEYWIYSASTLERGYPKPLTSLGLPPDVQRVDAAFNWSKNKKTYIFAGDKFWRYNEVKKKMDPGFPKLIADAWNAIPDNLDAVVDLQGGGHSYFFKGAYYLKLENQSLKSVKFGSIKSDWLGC

What was measured:
[1] = target: human toll-like receptor-2 (TLR-2) (human) (UniProt O60603); experiment: co-immunoprecipitation from lysates of moDCs or TLR2-transfected HEK cells treated with 5 µg/ml MMP-2; IP of TLR2 or of MMP-2, Western blot
[2] = target: human toll-like receptor-2 (TLR-2) (human) (UniProt O60603); experiment: co-immunoprecipitation (protein G-agarose) from moDCs or TLR2-transfected HEK cells incubated 20 min with 5 µg/ml MMP-2, Western blot

binding [1]: binds | binding [2]: binds
Substance: Purified human matrix metalloproteinase-2 (MMP-2) (from UniProt P08253 110-660) (enzyme)
